According to patent publication US9232799B2, “N-[(het)arylethyl)] pyrazole(thio)carboxamides and their heterosubstituted analogues” (BAYER INTELLECTUAL PROPERTY GMBH, priority 2010, dated 2016):
For some assays here: The name of at least one read-out is uncertain. Some entries share one result that the patent states for a list of compounds.

What was measured:
Cochliobolus miyabeanus = experiment: In vivo protective test on Cochliobolus miyabeanus (rice); details: 250 ppm of active ingredient, evaluated 4 days after inoculation
Puccinia triticina = experiment: In vivo preventive test on Puccinia triticina (wheat); details: 500 ppm of active ingredient, evaluated 8 days after inoculation
Botrytis cinerea = experiment: In vivo preventive test on Botrytis cinerea (beans); details: 500 ppm of active ingredient, lesion size 2 days after inoculation
Description: To test for preventive activity, young plants are sprayed with the preparation of active compound. After the spray coating has dried on, 2 small pieces of agar covered with growth of Botrytis cinerea are placed on each leaf.

SMILES | Efficacy (protection) (Cochliobolus miyabeanus) | Efficacy (protection) (Puccinia triticina) | also measured
COC(c1ccc(Cl)cc1Cl)C(C)NC(=O)c1cn(C)nc1C(F)F (centres unmarked) [1.14 from WO-2008/148570, N-[1-(2,4-dichlorophenyl)-1-methoxypropan-2-yl]-3-(difluoromethyl)-1-methyl-1H-pyrazole-4-carboxamide, reference compound] | at least 95% | – | –
Cc1nn(C)c(F)c1C(=O)N(C(C)Cc1ncc(C(F)(F)F)cc1Cl)C1CC1 (centres unmarked) [compound CMP5, N-{1-[3-chloro-5-(trifluoromethyl)pyridin-2-yl]propan-2-yl}-N-cyclopropyl-5-fluoro-1,3-dimethyl-1H-pyrazole-4-carboxamide, reference compound] | – | less than 15% | –
COC(c1ccc(Cl)cc1Cl)C(C)NC(=O)c1c(C(F)F)nn(C)c1F (centres unmarked) [Example 73, N-[1-(2,4-dichlorophenyl)-1-methoxypropan-2-yl]-3-(difluoromethyl)-5-fluoro-1-methyl-1H-pyrazole-4-carboxamide] | at least 95% | – | –
CC(Cc1ncc(C(F)(F)F)cc1Cl)N(C(=O)c1cn(C)nc1C(F)F)C1CC1 (centres unmarked) [compound CMP4, N-{1-[3-chloro-5-(trifluoromethyl)pyridin-2-yl]propan-2-yl}-N-cyclopropyl-3-(difluoromethyl)-1-methyl-1H-pyrazole-4-carboxamide, reference compound] | – | less than 15% | –
Cc1nn(C)c(Cl)c1C(=O)NC(C)(C)C(=O)c1ccc2ccccc2c1 [2-1 from WO-2006/016708, 5-chloro-1,3-dimethyl-N-[2-methyl-1-(2-naphthyl)-1-oxopropan-2-yl]-1H-pyrazole-4-carboxamide, reference compound] | – | – | Efficacy (Botrytis cinerea): 30%
